# PubChem BioAssay AID504834 (National Center for Advancing Translational Sciences (NCATS), 2011)
# Out of some 320,000 compounds screened, about 22,000 (6.9%) were called active. The inconclusive results got no clear call from the source; some entries with a clear call stand among them for comparison. Calls come from the whole dose curve; as a rule, active = well fitted inhibition curve with a large enough effect; inconclusive = small, poorly fitted or top-dose-only effect, or another doubt; inactive = no such curve, though single readings can be large or run the other way. Potencies beside an inconclusive call are fits to weak or partial responses and may not hold up.
# Assay: Primary qHTS for delayed death inhibitors of the malarial parasite plastid, 96 hour incubation
# Conditions: P. falciparum luciferase reporter growth; series mostly up to 28.7 µM; activity change, negative = inhibition: at the top concentration
# Method in brief: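 Readout is luminescence from an integrated firefly luciferase in P. falciparum. Red cells, 2% hematocrit and 0.05% parasitemia final, were cultured with compound through two parasite generations (96 hours) at 37 C, 5% CO2.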
# % is set by controls: 0 for no effect and ±100 for the full control effect; potency is the fitted concentration of half-maximal effect.
SMILES,Potency,"activity change, negative = inhibition"
O=[N+]([O-])c1cn(Cc2ccccc2)cn1,"inconclusive: 11.7 µM [inhibitor, single point]",–
N[C@H](CC(=O)O)C(=O)O,"inconclusive: 3.38 µM [inhibitor, full curve, poor fit]",–
COc1ccc2[nH]c(C)c(CCNC(=S)Nc3ccccc3C)c2c1,"inconclusive: 13.1 µM [inhibitor, partial curve, poor fit]",–
Cc1c(NC(=O)c2ccccc2NC(=O)COc2ccccc2)cccc1C(=O)O,"inconclusive: 18.5 µM [inhibitor, single point]",–
O=S(=O)(NC1CCCC1)c1ccc(Br)s1,–,inactive: 33.7%
CC(C)c1ccc(NC(=O)CCS(=O)(=O)c2cccc3nonc23)cc1,–,inactive: -10.9%
N#CCCn1c(SCC(=O)NCc2ccco2)nc2ccccc21,–,inactive: -0.879%
CCOc1ccc(CCNC(=O)c2nccnc2C(=O)O)cc1OCC,"inconclusive: 1.85 µM [inhibitor, partial curve, poor fit]",–
O=C(Nc1ccccc1N1CCOCC1)c1ccc2c(c1)OCCO2,–,inactive: -9.76%
CON(C)S(=O)(=O)c1ccc2c(c1)N(Cc1ccc(C)cc1)C(=O)C1CCCN21 (configuration not stated),active: 0.828 µM,–
COc1cc(NC(=O)CN2C(=O)NC(C)(c3ccc4ccccc4c3)C2=O)c(C)cc1[N+](=O)[O-] (configuration not stated),"inconclusive: 5.86 µM [inhibitor, partial curve, poor fit]",–
Cc1ccc(S(=O)(=O)NN2C(=O)c3ccccc3NC2c2ccco2)cc1 (configuration not stated),–,inactive: -11.2%
Cc1cc(C(=O)NCCN2CCN(c3cccc(Cl)c3)CC2)n(-c2ccccc2)n1,"inconclusive: 18.5 µM [inhibitor, single point]",–
Cc1cc(F)ccc1NC(=O)c1cnccn1,–,inactive: 236%
N#Cc1nc(COc2cccc(Cl)c2)oc1NCCN1CCOCC1,–,inactive: 19.8%
COc1ccc(N2CCN(C(CNS(=O)(=O)c3cc(F)ccc3F)c3cccnc3)CC2)cc1 (configuration not stated),"inconclusive: 18.5 µM [inhibitor, single point]",–
NC(=O)c1ccccc1N/C=C/C(=O)c1cccs1,–,inactive: 39.8%
CCC(=O)Nc1ccc(C(=O)CSc2nnc(-c3ccccc3F)n2CCc2ccccc2)cc1,–,inactive: -26.8%
Cc1occc1-c1nnc(SCC(=O)Nc2ccc(F)cc2)n1Cc1ccccc1,"inconclusive: 8.28 µM [inhibitor, single point]",–
O=C(CSc1nc2ccccc2n1CCc1ccccc1)c1ccc(O)c(O)c1,"inconclusive: 18.5 µM [inhibitor, single point]",–
O=C(COC(=O)Cc1ccc(Cl)cc1)Nc1ccccc1F,–,inactive: 141%
Cc1c(C)c2c(OCC(=O)NCc3ccccn3)cc3c(c2oc1=O)CCC(C)(C)O3,"inconclusive: 11.7 µM [inhibitor, partial curve, poor fit]",–
CC(C)c1csc(CN2CCCC(CNC(=O)c3cccc4ccccc34)C2)n1 (configuration not stated),"inconclusive: 11.7 µM [inhibitor, single point]",–
N#CCC(=O)Nc1ccc(C(=O)OCC(=O)N=c2sccn2Cc2ccccc2Cl)cc1,"inconclusive: 8.28 µM [inhibitor, partial curve]",–

# Three compounds already listed, sorted by molecular weight, descending:
SMILES,Potency,"activity change, negative = inhibition"
CCC(=O)Nc1ccc(C(=O)CSc2nnc(-c3ccccc3F)n2CCc2ccccc2)cc1,–,inactive: -26.8%
N#CCC(=O)Nc1ccc(C(=O)OCC(=O)N=c2sccn2Cc2ccccc2Cl)cc1,"inconclusive: 8.28 µM [inhibitor, partial curve]",–
NC(=O)c1ccccc1N/C=C/C(=O)c1cccs1,–,inactive: 39.8%

# Next part:

SMILES,Potency,"activity change, negative = inhibition"
CNC(=O)c1c(NC(=O)C2=COCCO2)sc2c1CCN(C(=O)OC)C2,–,inactive: -24%
O=C1NC(=O)C2(COC(c3ccccc3Cl)OC2)S1 (configuration not stated),–,inactive: -28.8%
COc1ccc(NCC(=O)N/N=C2\CCCC(C)C2)cc1 (configuration not stated),–,inactive: 22.3%
CCOc1ccccc1-c1nc(-c2ccc(NC(=O)Cc3ccccc3OC)cc2)no1,active: 3.7 µM,–
CC1(C)Cc2cccc(C(=O)Nc3ccncc3)c2O1,"inconclusive: 13.1 µM [inhibitor, single point]",–
Cc1cc(C)cc(N(CCC#N)C(=O)COC(=O)c2ccccc2SCC(=O)N2CCCC2)c1,active: 11.7 µM,–
O=c1c2cnn(-c3ccc(F)cc3)c2ncn1Cc1cccnc1,–,inactive: 155%
O=C(C1CC1)N1N=C(c2ccccc2)CC1(O)C(F)(F)F (configuration not stated),"inconclusive: 18.5 µM [inhibitor, single point]",–
Cc1nc2ccccc2c(=O)n1-c1cccnc1,"inconclusive: 4.15 µM [inhibitor, single point]",–
COc1cccc(CNC(=O)Cn2c(=O)c3cccn3c3ccccc32)c1,–,inactive: -1.92%
CCN(CC)S(=O)(=O)c1ccc(N/N=C/c2ccccc2OCC(=O)O)c([N+](=O)[O-])c1,active: 1.65 µM,–
Cc1ccc(C)c(N2CCN(C(=O)CC3Sc4ccccc4NC3=O)CC2)c1 (configuration not stated),"inconclusive: 0.0033 µM [inhibitor, full curve, poor fit]",–
CCN(CC)C(=O)c1cc2sc3ccccc3c2s1,–,inactive: -20.1%
O=c1c2ccccc2c(C=Nc2cccc(S(=O)(=O)NC3=NCCCCC3)c2)c(O)n1Cc1ccccc1,"inconclusive: 1.85 µM [inhibitor, full curve]",–
Cc1cccc(Cn2c(N(C)Cc3ccccc3)nc3c2c(=O)[nH]c(=O)n3C)c1,active: 13.1 µM,–
CCCCN(C)CC(O)Cn1cc(/C=C/C(=O)c2ccc(C)cc2)c2ccccc21 (configuration not stated),–,inactive: -8.13%
COCCCn1c(N)c(C(=O)Nc2sc3c(c2C(=O)OC)CCCC3)c2nc3ccccc3nc21,"inconclusive: 18.5 µM [inhibitor, single point]",–
CCn1c(CNC(=O)c2ccc(F)cc2)cc2ccccc21,"inconclusive: 0.0657 µM [inhibitor, full curve, poor fit]",–
Cc1ccc(-n2c(SCC(=O)NNC(=S)Nc3ccccc3)nc3ccccc3c2=O)cc1,–,inactive: 3.73%
CC(=O)Nc1ccc(S(=O)(=O)Nc2cccc(-c3csc(C)n3)c2)cc1,"inconclusive: 1.17 µM [inhibitor, full curve]",–
CCCN(C(=O)CCCSc1nc2ccccc2[nH]1)c1c(N)n(Cc2ccccc2)c(=O)[nH]c1=O,"inconclusive: 14.7 µM [inhibitor, partial curve, poor fit]",–
COc1cc2c(cc1OC)-c1cc(Nc3ccc(C(=O)O)cc3)nc(=O)n1CC2,"inconclusive: 1.65 µM [inhibitor, partial curve, poor fit]",–
O=C(Nc1ccccc1)C(Cc1ccccc1)NC(=O)C12CC3CC(CC(C3)C1)C2 (configuration not stated),"inconclusive: 18.5 µM [inhibitor, single point]",–
